Assay results as given in the supplement of paper PMC12819154, “High-throughput peptide-centric local stability assay extends protein–ligand identification to membrane proteins, tissues and bacteria” (Nature Structural & Molecular Biology, 2025).
The list shows a part of the results. Small differences around the control level are noise.

The chains behind the UniProt entries cited, without tags or fusion partners. Where a name states a change or a piece, a line headed by the entry shows the natural chain unless it says otherwise.
UniProt Q14116, whole entry: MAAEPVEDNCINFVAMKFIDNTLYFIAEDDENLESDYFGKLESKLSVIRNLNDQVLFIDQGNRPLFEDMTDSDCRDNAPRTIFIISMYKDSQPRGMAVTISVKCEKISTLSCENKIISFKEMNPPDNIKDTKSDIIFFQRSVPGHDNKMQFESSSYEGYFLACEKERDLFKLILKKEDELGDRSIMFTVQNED
UniProt Q13595: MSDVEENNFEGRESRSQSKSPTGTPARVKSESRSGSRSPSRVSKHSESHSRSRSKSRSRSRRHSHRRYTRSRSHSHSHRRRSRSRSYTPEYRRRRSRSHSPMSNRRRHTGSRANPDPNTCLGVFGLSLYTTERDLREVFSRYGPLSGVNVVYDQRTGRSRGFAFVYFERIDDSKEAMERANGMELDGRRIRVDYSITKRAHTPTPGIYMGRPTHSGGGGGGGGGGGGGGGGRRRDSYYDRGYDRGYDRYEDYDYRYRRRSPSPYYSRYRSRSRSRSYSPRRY
UniProt Q13487, whole entry: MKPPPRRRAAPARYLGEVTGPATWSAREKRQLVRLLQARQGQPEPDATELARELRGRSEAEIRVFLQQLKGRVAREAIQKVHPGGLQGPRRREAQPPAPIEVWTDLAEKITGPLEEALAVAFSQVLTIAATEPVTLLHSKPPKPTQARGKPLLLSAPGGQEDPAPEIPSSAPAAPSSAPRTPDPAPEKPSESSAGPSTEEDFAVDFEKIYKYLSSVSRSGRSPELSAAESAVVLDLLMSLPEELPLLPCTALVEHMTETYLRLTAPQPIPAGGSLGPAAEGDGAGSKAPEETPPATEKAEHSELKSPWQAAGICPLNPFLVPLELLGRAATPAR
UniProt Q13555: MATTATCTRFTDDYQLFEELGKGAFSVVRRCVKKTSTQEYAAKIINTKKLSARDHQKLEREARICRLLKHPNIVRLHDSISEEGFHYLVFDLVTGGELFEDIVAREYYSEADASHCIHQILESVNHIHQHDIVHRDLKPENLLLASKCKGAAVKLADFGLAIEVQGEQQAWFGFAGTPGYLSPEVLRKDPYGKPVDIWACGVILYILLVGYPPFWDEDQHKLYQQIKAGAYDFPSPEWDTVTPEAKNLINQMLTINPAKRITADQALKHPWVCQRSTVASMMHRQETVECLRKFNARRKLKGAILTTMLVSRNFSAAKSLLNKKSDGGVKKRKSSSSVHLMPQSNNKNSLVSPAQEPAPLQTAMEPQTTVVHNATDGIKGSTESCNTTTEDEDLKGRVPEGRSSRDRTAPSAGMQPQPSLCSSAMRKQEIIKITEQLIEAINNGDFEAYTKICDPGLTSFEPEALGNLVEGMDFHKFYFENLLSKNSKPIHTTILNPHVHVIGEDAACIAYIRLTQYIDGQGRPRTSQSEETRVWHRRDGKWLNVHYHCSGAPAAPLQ
UniProt Q14008: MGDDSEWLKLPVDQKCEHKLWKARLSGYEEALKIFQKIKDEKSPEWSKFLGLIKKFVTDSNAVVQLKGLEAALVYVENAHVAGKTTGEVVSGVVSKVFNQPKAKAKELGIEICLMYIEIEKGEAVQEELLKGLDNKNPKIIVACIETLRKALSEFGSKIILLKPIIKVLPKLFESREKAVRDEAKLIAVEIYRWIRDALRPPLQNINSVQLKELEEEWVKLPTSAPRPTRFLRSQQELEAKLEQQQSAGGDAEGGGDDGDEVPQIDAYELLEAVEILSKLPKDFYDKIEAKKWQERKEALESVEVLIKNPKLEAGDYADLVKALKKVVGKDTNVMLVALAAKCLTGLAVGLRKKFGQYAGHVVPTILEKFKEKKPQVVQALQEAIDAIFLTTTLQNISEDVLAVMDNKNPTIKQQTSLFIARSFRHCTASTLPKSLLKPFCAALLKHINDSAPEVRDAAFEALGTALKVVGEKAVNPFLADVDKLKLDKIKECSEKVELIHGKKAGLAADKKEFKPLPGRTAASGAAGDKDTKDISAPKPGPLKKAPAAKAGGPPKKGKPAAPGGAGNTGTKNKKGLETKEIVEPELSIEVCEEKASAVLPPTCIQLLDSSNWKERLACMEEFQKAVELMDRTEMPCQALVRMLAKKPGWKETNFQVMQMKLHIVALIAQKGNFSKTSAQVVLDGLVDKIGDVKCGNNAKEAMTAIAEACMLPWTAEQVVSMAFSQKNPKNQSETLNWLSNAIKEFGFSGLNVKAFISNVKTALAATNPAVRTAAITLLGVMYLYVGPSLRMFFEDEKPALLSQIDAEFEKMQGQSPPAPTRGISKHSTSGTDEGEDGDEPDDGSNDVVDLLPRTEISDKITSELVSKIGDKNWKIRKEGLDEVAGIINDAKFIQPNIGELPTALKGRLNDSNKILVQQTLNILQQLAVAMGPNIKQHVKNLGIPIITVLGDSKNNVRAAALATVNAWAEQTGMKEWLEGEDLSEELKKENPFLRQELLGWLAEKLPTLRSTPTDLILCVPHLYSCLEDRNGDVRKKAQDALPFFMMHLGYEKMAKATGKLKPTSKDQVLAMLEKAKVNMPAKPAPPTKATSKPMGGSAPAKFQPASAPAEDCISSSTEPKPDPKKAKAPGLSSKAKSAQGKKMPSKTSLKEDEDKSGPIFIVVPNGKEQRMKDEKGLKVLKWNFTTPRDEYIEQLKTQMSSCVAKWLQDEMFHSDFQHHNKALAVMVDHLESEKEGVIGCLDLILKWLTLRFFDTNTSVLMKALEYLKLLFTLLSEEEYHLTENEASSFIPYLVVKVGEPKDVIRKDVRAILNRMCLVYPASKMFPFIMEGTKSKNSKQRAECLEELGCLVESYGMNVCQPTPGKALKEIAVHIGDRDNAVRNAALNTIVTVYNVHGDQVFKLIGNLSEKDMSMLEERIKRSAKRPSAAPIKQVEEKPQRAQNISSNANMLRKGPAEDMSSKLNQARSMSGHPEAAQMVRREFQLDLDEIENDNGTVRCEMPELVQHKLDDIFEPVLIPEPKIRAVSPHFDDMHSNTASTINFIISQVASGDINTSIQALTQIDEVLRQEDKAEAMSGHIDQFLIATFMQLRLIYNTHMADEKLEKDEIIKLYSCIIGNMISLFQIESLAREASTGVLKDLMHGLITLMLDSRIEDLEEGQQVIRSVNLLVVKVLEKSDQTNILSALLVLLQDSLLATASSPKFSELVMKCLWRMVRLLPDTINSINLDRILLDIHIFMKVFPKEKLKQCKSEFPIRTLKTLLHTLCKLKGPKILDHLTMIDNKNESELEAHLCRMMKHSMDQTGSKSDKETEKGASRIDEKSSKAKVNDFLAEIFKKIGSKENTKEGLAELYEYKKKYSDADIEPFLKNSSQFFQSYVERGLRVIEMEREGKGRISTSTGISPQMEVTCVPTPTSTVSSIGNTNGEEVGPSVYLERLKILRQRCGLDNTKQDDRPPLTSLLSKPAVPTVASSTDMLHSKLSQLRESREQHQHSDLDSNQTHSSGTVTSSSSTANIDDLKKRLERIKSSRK
UniProt Q14142: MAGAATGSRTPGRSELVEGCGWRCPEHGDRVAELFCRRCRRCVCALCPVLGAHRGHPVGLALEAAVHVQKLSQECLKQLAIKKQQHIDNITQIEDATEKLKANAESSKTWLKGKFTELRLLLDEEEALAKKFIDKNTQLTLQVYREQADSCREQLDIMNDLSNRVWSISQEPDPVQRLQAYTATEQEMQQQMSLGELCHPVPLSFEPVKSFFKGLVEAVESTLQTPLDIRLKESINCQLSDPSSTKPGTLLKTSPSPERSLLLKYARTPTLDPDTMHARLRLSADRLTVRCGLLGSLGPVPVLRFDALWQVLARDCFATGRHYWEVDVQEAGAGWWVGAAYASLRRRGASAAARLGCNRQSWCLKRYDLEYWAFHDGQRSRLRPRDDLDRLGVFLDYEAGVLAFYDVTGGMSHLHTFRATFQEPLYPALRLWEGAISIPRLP
UniProt Q14186: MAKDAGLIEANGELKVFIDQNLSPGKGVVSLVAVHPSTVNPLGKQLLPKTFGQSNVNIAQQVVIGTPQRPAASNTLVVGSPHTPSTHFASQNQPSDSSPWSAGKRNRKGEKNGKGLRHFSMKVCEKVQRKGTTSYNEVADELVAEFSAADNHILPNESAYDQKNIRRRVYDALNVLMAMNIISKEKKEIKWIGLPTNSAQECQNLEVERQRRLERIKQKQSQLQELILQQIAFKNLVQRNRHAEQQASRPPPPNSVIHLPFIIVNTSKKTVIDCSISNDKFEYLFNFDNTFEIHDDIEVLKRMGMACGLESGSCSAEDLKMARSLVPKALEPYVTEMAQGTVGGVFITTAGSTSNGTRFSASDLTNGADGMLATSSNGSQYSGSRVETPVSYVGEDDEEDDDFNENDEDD
UniProt Q13572: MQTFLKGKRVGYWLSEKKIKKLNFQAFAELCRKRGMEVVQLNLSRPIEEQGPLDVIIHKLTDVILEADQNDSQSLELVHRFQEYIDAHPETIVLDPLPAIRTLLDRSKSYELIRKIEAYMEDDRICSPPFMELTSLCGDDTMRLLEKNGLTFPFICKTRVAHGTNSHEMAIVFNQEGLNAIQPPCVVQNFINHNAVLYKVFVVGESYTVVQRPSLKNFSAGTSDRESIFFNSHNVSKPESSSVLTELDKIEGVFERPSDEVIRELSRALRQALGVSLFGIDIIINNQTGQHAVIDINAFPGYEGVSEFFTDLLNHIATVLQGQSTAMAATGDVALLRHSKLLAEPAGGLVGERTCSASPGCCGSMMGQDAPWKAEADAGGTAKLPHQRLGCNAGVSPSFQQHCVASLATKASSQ
UniProt Q13107: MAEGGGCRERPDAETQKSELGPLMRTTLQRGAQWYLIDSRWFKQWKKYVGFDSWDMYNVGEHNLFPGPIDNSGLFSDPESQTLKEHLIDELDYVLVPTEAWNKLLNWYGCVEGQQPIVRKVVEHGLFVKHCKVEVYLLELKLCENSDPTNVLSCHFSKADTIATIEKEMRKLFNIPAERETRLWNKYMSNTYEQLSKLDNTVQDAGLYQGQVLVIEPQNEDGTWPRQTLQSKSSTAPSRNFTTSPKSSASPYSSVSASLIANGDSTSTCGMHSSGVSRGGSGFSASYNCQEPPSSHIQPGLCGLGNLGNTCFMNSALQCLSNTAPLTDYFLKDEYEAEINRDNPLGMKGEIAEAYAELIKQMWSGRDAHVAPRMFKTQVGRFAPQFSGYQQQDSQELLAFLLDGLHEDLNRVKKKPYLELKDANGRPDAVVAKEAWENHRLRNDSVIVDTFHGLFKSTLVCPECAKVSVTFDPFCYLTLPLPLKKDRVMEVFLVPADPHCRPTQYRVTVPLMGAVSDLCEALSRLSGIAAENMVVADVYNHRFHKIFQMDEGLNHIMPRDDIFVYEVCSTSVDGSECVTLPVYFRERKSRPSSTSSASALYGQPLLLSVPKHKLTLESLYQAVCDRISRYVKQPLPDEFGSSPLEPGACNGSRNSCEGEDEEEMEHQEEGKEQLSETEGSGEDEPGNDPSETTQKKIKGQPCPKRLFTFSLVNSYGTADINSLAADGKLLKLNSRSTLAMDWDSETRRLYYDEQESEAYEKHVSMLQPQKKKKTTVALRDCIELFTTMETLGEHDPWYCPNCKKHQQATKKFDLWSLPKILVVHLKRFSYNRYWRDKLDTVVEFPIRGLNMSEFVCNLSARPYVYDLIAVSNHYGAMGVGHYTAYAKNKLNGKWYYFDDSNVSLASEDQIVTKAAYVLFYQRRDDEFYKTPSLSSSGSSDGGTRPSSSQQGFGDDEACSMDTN

The targets below were run with Cc1nc(Nc2ncc(C(=O)Nc3c(C)cccc3Cl)s2)cc(N2CCN(CCO)CC2)n1 [dasatinib] (assay: log2 fold change of tryptic peptide abundance, ligand vs vehicle (limited proteolysis) (log2 ratio); higher = more trypsin-susceptible (destabilized)). Conditions: ligand concentration: 5 uM; sample: K562 cleared lysate.

Target | log2 fold change
IL18 (peptide sequence: GMAVTISVK, peptide start residue: 95) (UniProt Q14116) | 0.359
TRA2A (peptide sequence: VDYSITKR, peptide start residue: 192) (UniProt Q13595) | 0.367
SNAPC2 (peptide sequence: VFLQQLK, peptide start residue: 64) (UniProt Q13487) | -0.06
CAMK2G (peptide sequence: KTSTQEYAAK, peptide start residue: 34) (UniProt Q13555) | -0.316
CKAP5 (peptide sequence: WNFTTPRDEYIEQLK, peptide start residue: 1183) (UniProt Q14008) | 0.764
TRIM14 (peptide sequence: RYDLEYWAFHDGQR, peptide start residue: 366) (UniProt Q14142) | -0.379
TFDP1 (peptide sequence: DAGLIEANGELK, peptide start residue: 4) (UniProt Q14186) | -0.0643
ITPK1 (peptide sequence: KLNFQAFAELCR, peptide start residue: 21) (UniProt Q13572) | -0.297
USP4 (peptide sequence: DRVMEVFLVPADPHCRPTQYR, peptide start residue: 486) (UniProt Q13107) | 0.747

For reference, some entries already given.
Target | log2 fold change
TRIM14 (peptide sequence: RYDLEYWAFHDGQR, peptide start residue: 366) (UniProt Q14142) | -0.379
TFDP1 (peptide sequence: DAGLIEANGELK, peptide start residue: 4) (UniProt Q14186) | -0.0643
